Test results reported in article PMC7021761 (Nature Communications, 2020).
No constants are given. Whether binding was seen depends on the method and setting. Some results given as binding are weak or reduced against the parent protein; the word gives no strength.

Amino acid sequences for entries named in this document (tags omitted). Residues count along the entry.
UniProt P25090, residues 1-342: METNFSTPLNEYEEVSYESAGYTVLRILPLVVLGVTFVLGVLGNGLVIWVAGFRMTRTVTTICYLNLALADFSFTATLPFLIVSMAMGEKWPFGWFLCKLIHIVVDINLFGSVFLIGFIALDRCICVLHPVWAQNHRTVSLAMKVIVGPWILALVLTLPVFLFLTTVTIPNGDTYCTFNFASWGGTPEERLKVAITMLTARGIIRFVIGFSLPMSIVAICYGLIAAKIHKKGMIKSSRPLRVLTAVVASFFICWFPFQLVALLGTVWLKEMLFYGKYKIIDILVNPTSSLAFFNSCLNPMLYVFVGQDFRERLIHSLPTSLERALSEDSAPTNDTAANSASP

Target: human formylpeptide receptor 2 (FPR2), residues 1-342 (human) (UniProt P25090)
Assay: cryo-EM structure; FPR2, DNGαi1, His8-Gβ1 and Gγ2 co-expressed in Sf9; complex formed on membranes with 0.5 μM WKYMVm and apyrase, purified in detergent (LMNG/CHS/digitonin; Ni-NTA, amylose, SEC), purified scFv16 added on the resin; nucleotide-free; 3.17 Å; both purified

- binding: binds
Binder: WKYMVM (D-methionine at the last (6th) position; C-terminal amide (NH2)) [WKYMVm (Trp-Lys-Tyr-Met-Val-d-Met-NH2)]
